Experimental data from the supplement of paper PMC10849652.
The other results are listed elsewhere or left out.

By UniProt entry, the sequences of proteins in these tests, tags left out. Where a name states a change or a piece, a line headed by the entry shows the natural chain unless it says otherwise.
UniProt Q8N3C0, whole entry, looked up: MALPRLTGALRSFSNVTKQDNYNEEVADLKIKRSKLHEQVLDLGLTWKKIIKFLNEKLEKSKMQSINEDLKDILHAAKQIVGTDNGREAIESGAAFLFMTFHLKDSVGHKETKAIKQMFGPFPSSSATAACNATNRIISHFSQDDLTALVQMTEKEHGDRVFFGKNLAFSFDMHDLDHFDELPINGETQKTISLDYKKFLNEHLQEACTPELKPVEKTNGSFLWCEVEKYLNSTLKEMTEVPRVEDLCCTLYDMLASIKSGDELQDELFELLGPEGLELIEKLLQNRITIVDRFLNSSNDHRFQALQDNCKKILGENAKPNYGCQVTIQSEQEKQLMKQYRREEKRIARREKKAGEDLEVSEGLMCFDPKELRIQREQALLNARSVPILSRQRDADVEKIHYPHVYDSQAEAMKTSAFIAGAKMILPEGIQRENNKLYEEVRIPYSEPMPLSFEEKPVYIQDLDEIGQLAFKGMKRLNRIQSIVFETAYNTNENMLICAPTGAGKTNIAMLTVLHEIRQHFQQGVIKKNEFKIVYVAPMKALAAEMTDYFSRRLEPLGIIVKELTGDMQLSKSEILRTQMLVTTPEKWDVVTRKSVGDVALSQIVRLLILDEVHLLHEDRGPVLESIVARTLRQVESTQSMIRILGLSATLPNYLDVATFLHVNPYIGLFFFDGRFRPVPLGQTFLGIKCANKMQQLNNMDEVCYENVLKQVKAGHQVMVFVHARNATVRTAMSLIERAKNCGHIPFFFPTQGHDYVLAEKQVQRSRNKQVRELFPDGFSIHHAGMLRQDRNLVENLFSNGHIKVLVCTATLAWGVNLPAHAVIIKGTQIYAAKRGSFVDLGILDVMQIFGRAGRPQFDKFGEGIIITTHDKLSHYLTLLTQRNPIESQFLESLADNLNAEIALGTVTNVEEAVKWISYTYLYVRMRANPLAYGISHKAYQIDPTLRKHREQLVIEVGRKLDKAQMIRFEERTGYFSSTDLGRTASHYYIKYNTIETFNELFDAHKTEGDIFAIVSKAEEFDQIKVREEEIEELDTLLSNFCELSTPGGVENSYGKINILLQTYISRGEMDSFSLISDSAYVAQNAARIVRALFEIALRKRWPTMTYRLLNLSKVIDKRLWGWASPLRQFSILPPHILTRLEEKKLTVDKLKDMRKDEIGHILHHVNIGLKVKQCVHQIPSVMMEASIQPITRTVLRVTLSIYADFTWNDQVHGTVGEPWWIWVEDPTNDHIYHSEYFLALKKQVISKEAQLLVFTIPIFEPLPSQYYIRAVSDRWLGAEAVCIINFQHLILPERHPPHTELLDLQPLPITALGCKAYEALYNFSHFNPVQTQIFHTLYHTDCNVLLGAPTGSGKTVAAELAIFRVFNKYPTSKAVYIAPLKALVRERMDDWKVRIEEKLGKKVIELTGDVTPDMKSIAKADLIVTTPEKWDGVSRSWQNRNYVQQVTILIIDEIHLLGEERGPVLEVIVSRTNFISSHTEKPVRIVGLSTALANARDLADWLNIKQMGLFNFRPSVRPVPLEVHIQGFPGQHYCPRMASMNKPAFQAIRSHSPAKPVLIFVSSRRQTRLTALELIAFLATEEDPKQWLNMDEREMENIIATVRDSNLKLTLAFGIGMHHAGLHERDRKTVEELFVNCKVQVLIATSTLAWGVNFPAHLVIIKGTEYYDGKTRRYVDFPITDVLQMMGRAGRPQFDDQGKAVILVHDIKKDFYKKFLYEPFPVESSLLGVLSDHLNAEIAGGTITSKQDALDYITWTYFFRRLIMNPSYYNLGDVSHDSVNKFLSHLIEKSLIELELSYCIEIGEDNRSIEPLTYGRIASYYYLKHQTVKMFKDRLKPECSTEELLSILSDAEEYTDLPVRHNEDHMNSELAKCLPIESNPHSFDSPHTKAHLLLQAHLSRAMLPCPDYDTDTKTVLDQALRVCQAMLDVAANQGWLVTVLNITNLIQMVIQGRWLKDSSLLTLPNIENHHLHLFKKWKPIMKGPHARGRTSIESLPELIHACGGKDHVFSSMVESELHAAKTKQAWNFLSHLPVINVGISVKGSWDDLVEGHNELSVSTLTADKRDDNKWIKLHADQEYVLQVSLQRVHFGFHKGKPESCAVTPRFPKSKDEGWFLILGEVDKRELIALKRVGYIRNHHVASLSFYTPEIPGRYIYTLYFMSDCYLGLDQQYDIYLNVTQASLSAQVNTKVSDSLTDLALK
UniProt P98196: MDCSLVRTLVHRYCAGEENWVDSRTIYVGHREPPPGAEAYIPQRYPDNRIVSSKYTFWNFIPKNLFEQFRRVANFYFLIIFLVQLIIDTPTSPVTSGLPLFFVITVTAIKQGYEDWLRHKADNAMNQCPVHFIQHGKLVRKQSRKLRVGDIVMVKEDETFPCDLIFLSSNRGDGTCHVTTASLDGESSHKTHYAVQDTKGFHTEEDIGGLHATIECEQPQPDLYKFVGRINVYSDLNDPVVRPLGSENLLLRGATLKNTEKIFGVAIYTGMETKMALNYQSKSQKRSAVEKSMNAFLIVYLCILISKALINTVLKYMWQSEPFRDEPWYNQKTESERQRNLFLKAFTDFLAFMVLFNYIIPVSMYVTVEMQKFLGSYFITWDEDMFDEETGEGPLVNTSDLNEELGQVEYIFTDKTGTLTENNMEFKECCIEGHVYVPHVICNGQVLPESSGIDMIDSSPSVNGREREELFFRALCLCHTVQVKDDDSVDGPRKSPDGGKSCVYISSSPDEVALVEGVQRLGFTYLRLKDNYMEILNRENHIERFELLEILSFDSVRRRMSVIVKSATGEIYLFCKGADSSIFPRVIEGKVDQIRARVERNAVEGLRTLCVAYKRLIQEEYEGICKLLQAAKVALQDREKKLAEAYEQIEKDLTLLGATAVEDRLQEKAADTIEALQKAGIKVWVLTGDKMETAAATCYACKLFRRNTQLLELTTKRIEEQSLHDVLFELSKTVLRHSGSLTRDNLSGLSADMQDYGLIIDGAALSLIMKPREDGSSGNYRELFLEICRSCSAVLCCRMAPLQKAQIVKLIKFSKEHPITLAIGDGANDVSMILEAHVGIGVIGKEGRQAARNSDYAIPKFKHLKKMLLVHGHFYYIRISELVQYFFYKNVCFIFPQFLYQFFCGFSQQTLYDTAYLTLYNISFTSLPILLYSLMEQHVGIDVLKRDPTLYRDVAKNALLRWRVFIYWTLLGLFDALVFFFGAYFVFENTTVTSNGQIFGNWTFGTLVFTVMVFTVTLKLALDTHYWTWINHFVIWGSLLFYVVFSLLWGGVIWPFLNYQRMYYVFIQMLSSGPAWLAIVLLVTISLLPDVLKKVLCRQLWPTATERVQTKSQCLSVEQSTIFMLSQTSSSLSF
UniProt Q92747, whole entry, looked up: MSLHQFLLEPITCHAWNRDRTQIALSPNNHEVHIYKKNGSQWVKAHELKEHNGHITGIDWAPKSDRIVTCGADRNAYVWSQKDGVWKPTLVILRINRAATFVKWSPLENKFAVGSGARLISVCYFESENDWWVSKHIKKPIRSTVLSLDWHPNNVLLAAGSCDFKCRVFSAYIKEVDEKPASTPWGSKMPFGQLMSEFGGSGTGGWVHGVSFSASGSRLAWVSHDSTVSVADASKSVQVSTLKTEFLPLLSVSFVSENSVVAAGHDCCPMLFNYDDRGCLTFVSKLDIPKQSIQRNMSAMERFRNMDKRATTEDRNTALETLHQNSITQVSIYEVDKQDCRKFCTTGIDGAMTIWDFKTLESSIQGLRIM
UniProt P56381: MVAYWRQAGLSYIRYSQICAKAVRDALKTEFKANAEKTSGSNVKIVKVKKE
UniProt P04424, whole entry, looked up: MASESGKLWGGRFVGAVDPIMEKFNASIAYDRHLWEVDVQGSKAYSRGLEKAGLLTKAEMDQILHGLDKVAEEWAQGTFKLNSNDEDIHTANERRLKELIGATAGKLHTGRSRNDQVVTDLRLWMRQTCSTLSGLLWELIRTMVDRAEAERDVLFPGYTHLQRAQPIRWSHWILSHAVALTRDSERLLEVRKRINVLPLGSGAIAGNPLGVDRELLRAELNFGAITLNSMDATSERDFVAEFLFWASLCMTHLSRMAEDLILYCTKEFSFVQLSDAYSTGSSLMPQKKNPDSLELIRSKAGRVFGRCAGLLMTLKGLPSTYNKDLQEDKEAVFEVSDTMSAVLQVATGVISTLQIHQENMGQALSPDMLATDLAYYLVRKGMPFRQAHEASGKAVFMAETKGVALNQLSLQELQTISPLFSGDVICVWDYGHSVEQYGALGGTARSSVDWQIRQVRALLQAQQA
UniProt Q9Y294, whole entry, looked up: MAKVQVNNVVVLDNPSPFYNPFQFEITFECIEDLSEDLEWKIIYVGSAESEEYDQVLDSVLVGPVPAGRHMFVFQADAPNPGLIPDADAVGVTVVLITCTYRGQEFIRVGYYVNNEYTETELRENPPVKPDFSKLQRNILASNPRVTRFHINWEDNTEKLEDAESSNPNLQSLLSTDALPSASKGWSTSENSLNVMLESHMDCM
UniProt O95260: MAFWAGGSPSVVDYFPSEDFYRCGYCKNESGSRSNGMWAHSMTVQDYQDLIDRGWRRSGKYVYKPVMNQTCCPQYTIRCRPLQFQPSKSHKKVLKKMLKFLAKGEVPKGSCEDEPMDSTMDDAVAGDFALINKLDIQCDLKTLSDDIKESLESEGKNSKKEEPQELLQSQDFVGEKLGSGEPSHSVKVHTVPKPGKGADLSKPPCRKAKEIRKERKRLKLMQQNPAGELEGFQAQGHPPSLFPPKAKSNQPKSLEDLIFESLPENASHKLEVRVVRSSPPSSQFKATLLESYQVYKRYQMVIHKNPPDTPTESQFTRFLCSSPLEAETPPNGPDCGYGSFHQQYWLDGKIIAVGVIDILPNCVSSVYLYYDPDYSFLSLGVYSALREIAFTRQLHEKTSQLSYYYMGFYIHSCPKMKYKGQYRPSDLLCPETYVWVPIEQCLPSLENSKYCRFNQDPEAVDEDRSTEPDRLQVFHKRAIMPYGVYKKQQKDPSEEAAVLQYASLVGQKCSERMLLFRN
UniProt Q9Y487, whole entry, looked up: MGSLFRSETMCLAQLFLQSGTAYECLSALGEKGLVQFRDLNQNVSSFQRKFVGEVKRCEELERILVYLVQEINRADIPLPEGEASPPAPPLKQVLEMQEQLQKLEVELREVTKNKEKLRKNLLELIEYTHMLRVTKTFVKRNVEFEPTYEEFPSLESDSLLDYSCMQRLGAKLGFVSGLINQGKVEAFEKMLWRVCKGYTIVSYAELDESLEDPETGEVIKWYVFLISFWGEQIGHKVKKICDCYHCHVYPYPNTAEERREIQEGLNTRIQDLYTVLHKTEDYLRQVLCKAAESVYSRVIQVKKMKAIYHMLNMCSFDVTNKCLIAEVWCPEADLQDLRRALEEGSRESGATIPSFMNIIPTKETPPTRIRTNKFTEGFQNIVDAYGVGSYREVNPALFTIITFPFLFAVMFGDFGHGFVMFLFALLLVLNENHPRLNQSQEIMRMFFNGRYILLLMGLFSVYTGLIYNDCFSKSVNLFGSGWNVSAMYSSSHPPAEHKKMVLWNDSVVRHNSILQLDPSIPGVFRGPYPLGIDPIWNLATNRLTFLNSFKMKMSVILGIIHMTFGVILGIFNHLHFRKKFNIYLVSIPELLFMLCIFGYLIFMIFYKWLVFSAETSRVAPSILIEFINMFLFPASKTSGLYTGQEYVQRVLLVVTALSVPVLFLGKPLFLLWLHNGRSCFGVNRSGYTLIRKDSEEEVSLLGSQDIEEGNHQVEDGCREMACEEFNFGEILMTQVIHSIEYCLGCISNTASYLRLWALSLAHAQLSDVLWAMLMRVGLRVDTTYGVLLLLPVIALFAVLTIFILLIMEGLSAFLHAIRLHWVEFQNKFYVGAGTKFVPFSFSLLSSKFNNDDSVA
UniProt P27540, whole entry, looked up: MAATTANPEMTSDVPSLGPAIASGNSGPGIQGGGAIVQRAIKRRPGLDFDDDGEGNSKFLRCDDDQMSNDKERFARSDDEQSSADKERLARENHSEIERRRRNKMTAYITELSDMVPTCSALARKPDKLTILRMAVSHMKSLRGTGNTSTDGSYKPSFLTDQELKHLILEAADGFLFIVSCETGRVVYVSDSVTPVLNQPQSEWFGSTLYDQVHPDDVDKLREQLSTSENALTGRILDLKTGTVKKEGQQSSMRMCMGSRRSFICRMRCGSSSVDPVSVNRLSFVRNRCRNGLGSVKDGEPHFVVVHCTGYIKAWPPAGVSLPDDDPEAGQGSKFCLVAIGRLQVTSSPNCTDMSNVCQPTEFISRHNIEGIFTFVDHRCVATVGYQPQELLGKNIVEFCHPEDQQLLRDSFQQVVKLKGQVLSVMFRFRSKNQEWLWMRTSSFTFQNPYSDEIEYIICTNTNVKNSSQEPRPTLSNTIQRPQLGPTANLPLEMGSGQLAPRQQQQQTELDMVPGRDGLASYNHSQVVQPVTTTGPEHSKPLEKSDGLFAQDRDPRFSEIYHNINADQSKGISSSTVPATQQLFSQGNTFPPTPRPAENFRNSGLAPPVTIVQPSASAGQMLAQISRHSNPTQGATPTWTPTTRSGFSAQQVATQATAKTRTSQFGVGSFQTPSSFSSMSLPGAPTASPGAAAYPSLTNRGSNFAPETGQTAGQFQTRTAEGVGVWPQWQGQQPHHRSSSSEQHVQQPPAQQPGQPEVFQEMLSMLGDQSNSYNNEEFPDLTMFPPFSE

Assays:
Experiment in all cases: log2 fold change, soluble protein after heating vs DMSO (PISA); higher = thermal stabilisation; K562 cells, 10 uM, 30 min; active = over 0.2 and 3.5 SD of the protein, either way, in both replicates (recomputed)
[1] = compound: COC1=CC=C(C=C1)CN2C=CC3=C2C=C(C=C3)C(=O)NO
Summary of the method: (§1)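 Values are thermal stability changes relative to control samples and are taken from duplicates. They are stated as log2 fold changes. Before quantification by TMTpro 16plex LC-MS/MS with equalised channel sums, K562 cells at 2×10^6 cells/mL were treated with 10 μM compound for 30 min, heated in aliquots for 3 min across 48°C-58°C, pooled, extracted in PBS with 0.5% NP-40 at 4°C, and centrifuged at 21,000xg for 90 min to give the soluble supernatant.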

filanesib = compound: CON(C)C(=O)N1N=C(c2cc(F)ccc2F)S[C@@]1(CCCN)c1ccccc1 [filanesib]
Summary of the method: as §1

zotarolimus = compound: CO[C@H]1C[C@@H]2CC[C@@H](C)[C@@](O)(O2)C(=O)C(=O)N2CCCC[C@H]2C(=O)O[C@H]([C@H](C)C[C@@H]2CC[C@H](n3cnnn3)[C@H](OC)C2)CC(=O)[C@H](C)/C=C(\C)[C@@H](O)[C@@H](OC)C(=O)[C@H](C)C[C@H](C)/C=C/C=C/C=C/1C [zotarolimus]
Summary of the method: as §1

idasanutlin = compound: COc1cc(C(=O)O)ccc1NC(=O)[C@@H]1N[C@@H](CC(C)(C)C)[C@](C#N)(c2ccc(Cl)cc2F)[C@H]1c1cccc(Cl)c1F [idasanutlin]
Summary of the method: as §1

alisertib = compound: COc1cc(Nc2ncc3c(n2)-c2ccc(Cl)cc2C(c2c(F)cccc2OC)=NC3)ccc1C(=O)O [alisertib]
Summary of the method: as §1

[2] = compound: COc1cc2nc(-c3cc(F)ccc3O)nc(N[C@@H]3CNC[C@H]3C(C)(C)O)c2cc1OC
Summary of the method: as §1

gefitinib = compound: COc1cc2ncnc(Nc3ccc(F)c(Cl)c3)c2cc1OCCCN1CCOCC1 [gefitinib]
Summary of the method: as §1

[3] = compound: COc1cccc2cc(-c3nc([C@H]4CC[C@H](C(=O)O)CC4)n4ncnc(N)c34)[nH]c12
Summary of the method: as §1

lapatinib = compound: CS(=O)(=O)CCNCc1ccc(-c2ccc3ncnc(Nc4ccc(OCc5cccc(F)c5)c(Cl)c4)c3c2)o1 [lapatinib]
Summary of the method: as §1

pictilisib = compound: CS(=O)(=O)N1CCN(Cc2cc3nc(-c4cccc5[nH]ncc45)nc(N4CCOCC4)c3s2)CC1 [pictilisib]
Summary of the method: as §1

| Target | log2 fold change [1] | log2 fold change (filanesib) | log2 fold change (zotarolimus) | log2 fold change (idasanutlin) | log2 fold change (alisertib) | log2 fold change [2] | log2 fold change (gefitinib) | log2 fold change [3] | log2 fold change (lapatinib) | log2 fold change (pictilisib) |
| --- | --- | --- | --- | --- | --- | --- | --- | --- | --- | --- |
| ARL2BP (UniProt Q9Y2Y0) | inactive: 0.287 | inactive: -0.061 | inactive: 0.062 | inactive: -0.012 | inactive: -0.074 | inactive: -0.049 | inactive: 0.028 | inactive: 0.02 | inactive: -0.025 | inactive: 0.098 |
| ARL8A (UniProt Q96BM9) | inactive: 0.037 | inactive: -0.011 | inactive: -0.046 | inactive: -0.089 | inactive: 0.019 | inactive: 0.01 | inactive: -0.108 | inactive: 0.08 | inactive: -0.034 | inactive: 0.086 |
| ATP1B1 (UniProt P05026) | inactive: -0.058 | inactive: 0.16 | inactive: 0.018 | inactive: -0.016 | inactive: -0.049 | inactive: 0.11 | inactive: -0.018 | inactive: 0.064 | inactive: -0.062 | inactive: 0.035 |
| ASCC3 (UniProt Q8N3C0) | inactive: 0.13 | inactive: -0.004 | inactive: 0.053 | inactive: 0.109 | inactive: -0.08 | inactive: 0.163 | inactive: -0.001 | inactive: -0.133 | inactive: 0.062 | inactive: 0.037 |
| ASAP1 isoform 2 (UniProt Q9ULH1) | inactive: 0.025 | inactive: 0.122 | inactive: 0.02 | inactive: 0.088 | inactive: -0.009 | inactive: 0.141 | inactive: 0.133 | inactive: 0.01 | inactive: -0.071 | inactive: -0.044 |
| ATP11A (UniProt P98196) | inactive: -0.027 | inactive: 0.036 | inactive: 0.011 | inactive: 0.004 | inactive: 0.23 | inactive: 0.026 | inactive: 0.057 | inactive: 0.015 | inactive: -0.033 | inactive: 0.007 |
| ARPC1A (UniProt Q92747) | inactive: -0.041 | inactive: 0.017 | inactive: 0.004 | inactive: -0.014 | inactive: 0.335 | inactive: 0.065 | inactive: -0.019 | inactive: 0.108 | inactive: -0.009 | inactive: -0.033 |
| ATG101 (UniProt Q9BSB4) | inactive: -0.002 | inactive: -0.066 | inactive: -0.008 | inactive: -0.048 | inactive: -0.112 | inactive: 0.005 | inactive: -0.07 | inactive: 0.041 | inactive: -0.02 | inactive: -0.046 |
| ATP6V0D1 (UniProt P61421) | inactive: -0.069 | inactive: 0.013 | inactive: 0.079 | inactive: 0.089 | inactive: -0.045 | inactive: -0.24 | inactive: -0.123 | inactive: -0.176 | inactive: 0.002 | inactive: -0.141 |
| ATP9B (UniProt O43861) | inactive: -0.019 | inactive: 0.192 | inactive: -0.054 | inactive: 0.022 | inactive: -0.039 | inactive: 0.023 | inactive: 0.101 | inactive: 0.178 | inactive: 0.019 | inactive: 0.012 |
| ARSA (UniProt P15289) | inactive: 0.082 | inactive: 0.025 | inactive: 0.016 | inactive: 0.017 | inactive: -0.018 | inactive: 0.146 | inactive: -0.07 | inactive: 0.07 | inactive: 0.037 | inactive: 0.145 |
| ARSB (UniProt P15848) | inactive: -0.076 | inactive: -0.03 | inactive: -0.088 | inactive: -0.018 | inactive: 0.003 | inactive: 0.014 | inactive: 0.074 | inactive: 0.051 | inactive: -0.089 | inactive: 0.022 |
| ASCC1 isoform 2 (UniProt Q8N9N2) | inactive: -0.032 | inactive: -0.048 | inactive: 0.004 | inactive: -0.045 | inactive: -0.075 | inactive: -0.069 | inactive: 0.051 | inactive: 0.017 | inactive: 0.044 | inactive: -0.04 |
| ATG13 isoform 5 (UniProt O75143) | inactive: 0.015 | inactive: 0.042 | inactive: -0.025 | inactive: 0.037 | inactive: 0.009 | inactive: -0.058 | inactive: -0.017 | inactive: -0.059 | inactive: -0.009 | inactive: 0.065 |
| ATP5F1A (UniProt P25705) | inactive: -0.052 | inactive: -0.026 | inactive: -0.042 | inactive: 0.021 | inactive: -0.03 | inactive: -0.005 | inactive: 0.002 | inactive: 0.05 | inactive: -0.003 | inactive: -0.03 |
| ATAD1 (UniProt Q8NBU5) | inactive: 0.009 | inactive: -0.045 | inactive: 0.087 | inactive: -0.046 | inactive: -0.037 | inactive: -0.014 | inactive: 0.003 | inactive: -0.029 | inactive: 0.007 | inactive: 0.012 |
| ATP7B (UniProt P35670) | inactive: -0.02 | inactive: 0.087 | inactive: -0.075 | active: -0.233 | inactive: -0.02 | inactive: -0.011 | inactive: 0.028 | inactive: 0.026 | inactive: 0.061 | inactive: 0.061 |
| ARL5A (UniProt Q9Y689) | inactive: -0.013 | inactive: -0.022 | inactive: 0.039 | inactive: -0.085 | inactive: -0.086 | inactive: 0.054 | inactive: -0.038 | inactive: 0.091 | inactive: 0.087 | inactive: 0.009 |
| ARMC8 (UniProt Q8IUR7) | inactive: 0.056 | inactive: 0.048 | inactive: 0 | inactive: -0.016 | inactive: -0.08 | inactive: -0.014 | inactive: -0.029 | inactive: -0.016 | inactive: 0.046 | inactive: 0.005 |
| ATP5F1E (UniProt P56381) | inactive: 0.012 | inactive: -0.01 | inactive: 0 | inactive: -0.016 | inactive: -0.065 | inactive: -0.003 | inactive: 0.025 | inactive: 0.02 | inactive: -0.048 | inactive: -0.04 |
| ATP2A3 isoform 2 (UniProt Q93084) | inactive: -0.016 | inactive: -0.118 | inactive: -0.009 | inactive: -0.027 | inactive: -0.082 | inactive: -0.004 | inactive: -0.029 | inactive: 0.02 | inactive: -0.002 | inactive: 0.027 |
| ASL (UniProt P04424) | inactive: -0.017 | inactive: -0.096 | inactive: -0.017 | inactive: -0.02 | inactive: -0.024 | inactive: 0.018 | inactive: 0.008 | inactive: 0.055 | inactive: -0.018 | inactive: 0.05 |
| ASF1A (UniProt Q9Y294) | inactive: -0.008 | inactive: -0.093 | inactive: -0.007 | inactive: 0.013 | inactive: -0.038 | inactive: 0.024 | inactive: 0.005 | inactive: 0.036 | inactive: -0.001 | inactive: 0.002 |
| ATP6V1C1 (UniProt P21283) | inactive: -0.012 | inactive: 0.029 | inactive: 0.08 | inactive: 0.016 | inactive: -0.069 | inactive: -0.091 | inactive: -0.286 | inactive: -0.206 | inactive: -0.046 | inactive: -0.022 |
| ATP5IF1 (UniProt Q9UII2) | inactive: -0.02 | inactive: -0.067 | inactive: 0.004 | inactive: 0.093 | inactive: -0.062 | inactive: 0.024 | inactive: 0.013 | inactive: 0.03 | inactive: -0.043 | inactive: -0.016 |
| ATE1 isoform 2 (UniProt O95260) | inactive: -0.086 | inactive: -0.012 | inactive: -0.012 | inactive: -0.031 | inactive: -0.004 | inactive: 0.054 | inactive: 0.02 | inactive: 0.025 | inactive: -0.009 | inactive: 0.155 |
| ATP5MF (UniProt P56134) | inactive: -0.025 | inactive: -0.023 | inactive: -0.031 | inactive: -0.018 | inactive: -0.194 | inactive: -0.057 | inactive: 0.008 | inactive: 0.058 | inactive: 0.12 | inactive: 0.065 |
| ATP6V0A2 (UniProt Q9Y487) | inactive: -0.029 | inactive: -0.083 | inactive: 0.011 | inactive: 0.004 | inactive: -0.082 | inactive: -0.07 | inactive: -0.058 | inactive: -0.056 | inactive: 0.016 | inactive: -0.071 |
| ARNT (UniProt P27540) | inactive: -0.095 | inactive: -0.003 | inactive: 0.096 | inactive: -0.005 | inactive: 0.018 | inactive: 0.001 | inactive: 0.042 | inactive: -0.12 | inactive: -0.014 | inactive: 0.032 |

2 entries from above, bar-delimited:
Target | log2 fold change [1] | log2 fold change (filanesib) | log2 fold change (zotarolimus) | log2 fold change (idasanutlin) | log2 fold change (alisertib) | log2 fold change [2] | log2 fold change (gefitinib) | log2 fold change [3] | log2 fold change (lapatinib) | log2 fold change (pictilisib)
ASCC3 (UniProt Q8N3C0) | inactive: 0.13 | inactive: -0.004 | inactive: 0.053 | inactive: 0.109 | inactive: -0.08 | inactive: 0.163 | inactive: -0.001 | inactive: -0.133 | inactive: 0.062 | inactive: 0.037
ASAP1 isoform 2 (UniProt Q9ULH1) | inactive: 0.025 | inactive: 0.122 | inactive: 0.02 | inactive: 0.088 | inactive: -0.009 | inactive: 0.141 | inactive: 0.133 | inactive: 0.01 | inactive: -0.071 | inactive: -0.044
